In paper PMC9606255:
No constants are given. Whether binding was seen depends on the method and setting. In cells and extracts the contact can be indirect. Some binding calls cover weakened binding; strength is not graded here. Each block holds one molecule with its values, some of them ahead of it.

By UniProt entry, the sequences of proteins in these tests, tags left out.
UniProt Q9C0C2: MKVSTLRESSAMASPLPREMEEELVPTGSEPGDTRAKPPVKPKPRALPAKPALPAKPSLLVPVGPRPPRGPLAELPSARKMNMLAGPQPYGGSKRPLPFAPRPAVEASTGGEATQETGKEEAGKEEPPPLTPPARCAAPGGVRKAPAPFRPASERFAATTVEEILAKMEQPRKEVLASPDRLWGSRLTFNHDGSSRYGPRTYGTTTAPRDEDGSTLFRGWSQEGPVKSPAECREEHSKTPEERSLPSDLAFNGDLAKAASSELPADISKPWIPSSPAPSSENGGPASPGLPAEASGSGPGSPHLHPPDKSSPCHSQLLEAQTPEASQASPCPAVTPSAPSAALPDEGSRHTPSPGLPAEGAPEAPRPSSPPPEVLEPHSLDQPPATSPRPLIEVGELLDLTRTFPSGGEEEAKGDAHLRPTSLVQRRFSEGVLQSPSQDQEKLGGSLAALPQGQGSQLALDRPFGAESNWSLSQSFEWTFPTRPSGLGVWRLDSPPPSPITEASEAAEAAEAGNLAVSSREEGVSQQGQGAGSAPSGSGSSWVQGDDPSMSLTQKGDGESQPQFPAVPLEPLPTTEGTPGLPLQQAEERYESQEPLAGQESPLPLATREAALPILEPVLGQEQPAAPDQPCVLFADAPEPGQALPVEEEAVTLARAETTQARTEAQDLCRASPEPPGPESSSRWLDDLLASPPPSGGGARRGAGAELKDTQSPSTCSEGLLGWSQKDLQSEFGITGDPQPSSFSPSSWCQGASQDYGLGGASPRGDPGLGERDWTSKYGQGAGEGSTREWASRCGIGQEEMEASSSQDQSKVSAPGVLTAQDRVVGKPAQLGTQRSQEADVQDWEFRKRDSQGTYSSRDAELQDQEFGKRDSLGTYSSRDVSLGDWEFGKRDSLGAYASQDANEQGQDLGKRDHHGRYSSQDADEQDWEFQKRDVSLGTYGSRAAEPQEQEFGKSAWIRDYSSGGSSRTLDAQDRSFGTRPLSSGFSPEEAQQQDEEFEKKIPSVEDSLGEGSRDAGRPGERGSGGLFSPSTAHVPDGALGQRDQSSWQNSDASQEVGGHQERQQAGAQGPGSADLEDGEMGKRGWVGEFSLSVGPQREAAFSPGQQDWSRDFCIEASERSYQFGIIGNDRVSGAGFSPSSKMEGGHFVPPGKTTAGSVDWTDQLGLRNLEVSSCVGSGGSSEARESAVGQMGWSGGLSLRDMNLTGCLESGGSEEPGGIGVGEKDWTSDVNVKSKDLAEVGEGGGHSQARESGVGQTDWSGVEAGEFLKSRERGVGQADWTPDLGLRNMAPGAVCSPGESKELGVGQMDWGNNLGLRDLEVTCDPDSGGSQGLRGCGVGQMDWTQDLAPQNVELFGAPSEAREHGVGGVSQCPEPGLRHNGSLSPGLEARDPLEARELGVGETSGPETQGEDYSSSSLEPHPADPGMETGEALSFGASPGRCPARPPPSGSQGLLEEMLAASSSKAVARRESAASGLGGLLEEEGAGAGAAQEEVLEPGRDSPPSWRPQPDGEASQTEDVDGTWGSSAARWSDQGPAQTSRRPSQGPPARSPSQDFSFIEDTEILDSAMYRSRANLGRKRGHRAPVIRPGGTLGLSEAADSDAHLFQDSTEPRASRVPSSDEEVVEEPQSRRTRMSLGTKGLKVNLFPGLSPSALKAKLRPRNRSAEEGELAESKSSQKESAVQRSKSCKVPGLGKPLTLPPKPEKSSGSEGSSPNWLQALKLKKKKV
UniProt P35222: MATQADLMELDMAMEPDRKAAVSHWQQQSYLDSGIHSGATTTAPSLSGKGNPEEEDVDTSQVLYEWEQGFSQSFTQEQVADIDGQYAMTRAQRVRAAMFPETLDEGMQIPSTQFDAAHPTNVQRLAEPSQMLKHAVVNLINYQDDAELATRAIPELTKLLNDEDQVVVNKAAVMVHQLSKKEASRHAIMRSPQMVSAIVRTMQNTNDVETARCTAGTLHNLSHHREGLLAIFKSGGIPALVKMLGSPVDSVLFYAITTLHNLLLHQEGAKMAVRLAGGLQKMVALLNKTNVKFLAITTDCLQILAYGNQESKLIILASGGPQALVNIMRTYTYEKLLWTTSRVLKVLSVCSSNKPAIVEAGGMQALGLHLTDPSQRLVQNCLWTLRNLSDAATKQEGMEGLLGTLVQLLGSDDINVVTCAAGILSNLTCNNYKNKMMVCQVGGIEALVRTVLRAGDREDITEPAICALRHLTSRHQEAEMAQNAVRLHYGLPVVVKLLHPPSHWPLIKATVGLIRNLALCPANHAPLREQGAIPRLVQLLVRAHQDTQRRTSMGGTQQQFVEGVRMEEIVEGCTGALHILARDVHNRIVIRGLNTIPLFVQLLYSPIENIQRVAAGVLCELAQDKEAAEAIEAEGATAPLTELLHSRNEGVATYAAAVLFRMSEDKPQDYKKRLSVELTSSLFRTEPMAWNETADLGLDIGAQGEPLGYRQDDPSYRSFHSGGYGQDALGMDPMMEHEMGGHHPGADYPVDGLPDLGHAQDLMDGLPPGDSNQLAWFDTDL

Assays:
[1] = molecular target: TAB182 (human (endogenous in TE-10 and KYSE-150)) (UniProt Q9C0C2); experiment: co-IP; HEK293T cells, co-IP of TAB182, FHL2 and β-catenin (Fig. S2A)
[2] = molecular target: TAB182 (human (endogenous in TE-10 and KYSE-150)) (UniProt Q9C0C2); experiment: co-IP; ESCC cell lysates (M-PER buffer) incubated with TAB182, FHL2 or β-catenin antibodies at 4 °C overnight, protein G beads, washed four times with 0.1% Triton-PBS, western blot; also in cells with TAB182 knocked down, over-expressed or expressing TAB182-Δ1
[3] = molecular target: β-catenin (human (endogenous in TE-10 and KYSE-150)) (UniProt P35222); experiment: as above
[4] = molecular target: TAB182 (human (endogenous in TE-10 and KYSE-150)) (UniProt Q9C0C2); experiment: as above; remark: listed apart in the source
[5] = molecular target: β-catenin (human (endogenous in TE-10 and KYSE-150)) (UniProt P35222); experiment: co-IP; HEK293T cells, co-IP of TAB182, FHL2 and β-catenin (Fig. S2A)

- binding [1]: binds
- binding [2]: binds
Molecule: β-catenin (from UniProt P35222 1-781)

- binding [3]: binds
- binding [4]: binds
- binding [5]: binds
- binding [1]: binds
B1: four and a half of LIM-only protein 2 (FHL2) (protein, UniProt Q14192 1-279)
chain: MTERFDCHHCNESLFGKKYILREESPYCVVCFETLFANTCEECGKPIGCDCKDLSYKDRHWHEACFHCSQCRNSLVDKPFAAKEDQLLCTDCYSNEYSSKCQECKKTIMPGTRKMEYKGSSWHETCFICHRCQQPIGTKSFIPKDNQNFCVPCYEKQHAMQCVQCKKPITTGGVTYREQPWHKECFVCTACRKQLSGQRFTARDDFAYCLNCFCDLYAKKCAGCTNPISGLGGTKYISFEERQWHNDCFNCKKCSLSLVGRGFLTERDDILCPDCGKDI
